Library screen at single concentrations

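Phenotypic screen: M. tuberculosis growth, cholesterol and DPPC medium, 4 days; the read-out is not stated. Compounds at 50 µM. Higher reads as more growth inhibition (inferred: compounds with an IC50 in retests scored well above the rest). Size under these conditions: about 69,000 compounds, about 370 of them at 50% or above in at least one test.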

Each number is a percent effect as filed. How 0% and 100% were set is not recorded. Most values in the screen are low, and negative values occur. The compounds are a random part of those screened. Two or more numbers in one place are separate tests of the same structure; such repeats can differ widely.

With CCc1nnc(SCc2cc(=O)n3c4c(sc3n2)CCCC4)[nH]1 the screen gave 8.426%. Cc1nn(C)cc1-c1cncn1CCN(C)C1CCCC1.Cl gave -4.199%. CC(NC1(CNS(C)(=O)=O)CCOCC1)c1ccccc1 (centres undefined) read -6.014%. Result for CN(Cc1cccc(OCCO)c1)Cc1cccc2ncccc12 was -27.14%. N#Cc1c(F)cccc1N1CCN(C(=O)Nc2nncs2)CC1 gave -1.806%. CC(=O)c1ccc(N2CCN(C(=O)c3cnn4c3OCCC4)CC2)cc1 read -11.47%. With CCOc1ccnc(N2CCN(C(=O)C(C)(C)C#N)CC2)n1 the screen gave -18.6%.

O=c1[nH]c2c(c(=O)n1C1CCCCC1)CCC2NCc1ccccc1 (centres undefined) read 11.56%. Cc1cnn(CC(C)NCc2ccc(OCc3nccn3C)cc2)c1 (centres undefined) gave -32.4%. c1ccc(-c2noc(CN3CCCC(Cn4cncn4)C3)n2)nc1 (centres undefined) read -2.265%. With CN(Cc1ccncc1)C(CO)c1cccc(F)c1 (centres undefined) the screen gave 14.56%. For O=C(Nc1ccc(F)cc1F)N(CCC(F)(F)F)C[C@H](O)CO the result was 13.67%. Result for CCN1CC2(CCN(CCOc3ccc(F)cc3)CC2)CC1=O was -31.03%. With COCCn1cc(CC(=O)Nc2nc3c(s2)CCC3)c2ccccc21 the screen gave 6.863%.

CC1=Nc2c(c(=O)[nH]n2C2CCCC2)C(c2ccc(O)cc2)S1 (centres undefined) read 3.882%. For O=C(NCC(O)COc1ccccc1)Nc1nncs1 (centres undefined) the result was 1.272%. COCCOc1ncccc1C(=O)N(C)c1nccs1 gave -8.92%. O=C(c1cccnc1)N1CCC2(CC1)CN(c1ccccn1)CCO2 read -7.82%. Cc1ccc(C(=O)N2CC(=O)N(Cc3ccco3)CC(O)C2)cc1 (centres undefined) read -8.219%. Result for CCCNC(=O)C(C)Nc1ccn(Cc2ccccn2)n1 (centres undefined) was 1.874%. Result for CNC(=O)Cn1cc(C#N)c(=O)c2cc(Br)ccc21 was -11.75%.

For COc1ccc(Cc2cccc(C3CCN(C)CC3)n2)cc1 the result was 7.85%. CC1CCN(C(=O)CN(Cc2ccco2)C2CC2)CC1 read 0.8716%. With Cc1ccc(-c2ccc(C3CNCCO3)nc2)cc1.Cl (centres undefined) the screen gave 10.92%. CS(=O)(=O)NCc1cc(-c2cc(F)cc(F)c2)nc(N2CC[C@H](O)C2)n1 gave -17.98%. O=C1CC(NS(=O)(=O)c2cccc(F)c2)CN1 (centres undefined) read 6.927%. N#CCc1ccc(OCC(=O)NS(=O)(=O)c2cccs2)cc1 read -12.25%. With CS(=O)(=O)CCn1ccc(NC(=O)Cc2cccc(Cl)c2)n1 the screen gave -8.551%.

Cc1noc(C)c1CN1CC2(CCN(C(=O)c3cccn3C)C2)CC1=O (centres undefined) read -14.37%. With Cc1c[nH]c(C2CCCN(Cc3cccc(C(=O)O)c3)C2)n1 (centres undefined) the screen gave 6.598%. Result for CCc1nnc2n1CCN(CCS(=O)(=O)c1ccccc1)C2 was 5.294%. Result for CCn1ncc(S(=O)(=O)N[C@@H]2CC[C@@H](n3ccnc3C)[C@@H]2O)c1C was 8.409% and -1.286%. Result for O=C1NC(C(=O)NCc2cccnc2Oc2ccc(F)cc2F)CO1 (centres undefined) was -3.182%. For Cc1cccc(-n2cc(C(=O)N3CCn4c(C)nnc4C3)nn2)c1 the result was -14.8%. For Cc1nc(C)n(CC2CCCN2Cc2coc(-c3cccs3)n2)n1 (centres undefined) the result was -14.01%.

With Cc1cc(C(=O)NCCN2CCC(C)CC2)nn1C(C)(C)C the screen gave 6.177%. Result for Cc1nc(CCNC(=O)C2CCN(C(C)C)CC2)sc1Cl was 4.777%. With O=C(NCCCn1nc2ccccn2c1=O)NCC(C1CC1)C1CC1 the screen gave 13.03%. With Cc1nn(CC(=O)N2CCN(Cc3cnn(C)c3C)CC2)cc1Cl the screen gave 6.238%. O=C(NCCNc1cncc(Br)c1)c1ccc(O)cc1 gave 8.338%. Result for CN(C)c1cccc(C2CCCN2S(N)(=O)=O)c1 (centres undefined) was 1.383%. Result for Cc1nc(C(=O)N(C)CC(F)(F)C(F)(F)F)c2ccccn12 was -0.2729%.

Result for CCN(C)C[C@@H]1CN(C(=O)c2cc(C(F)(F)F)n[nH]2)C[C@@H]1CO was 1.862%. Result for CCC(C)NC(=O)NCc1cc2n(n1)CCCN(C1CCCCC1)C2 (centres undefined) was -34.25%. Result for N#Cc1nccnc1N1CCC(CSc2ccccc2)C1 (centres undefined) was 58.43%. For O=C(NCCO)C1(CC2CC(c3ccc(F)cc3)=NO2)CCOCC1 (centres undefined) the result was -2.793% and -10.84%.

Some entries from above, unchanged:

| structure | Percent Effect |
|---|---|
| `CC(NC1(CNS(C)(=O)=O)CCOCC1)c1ccccc1` (centres undefined) | -6.014 |
| `O=c1[nH]c2c(c(=O)n1C1CCCCC1)CCC2NCc1ccccc1` (centres undefined) | 11.56 |
| `CN(Cc1cccc(OCCO)c1)Cc1cccc2ncccc12` | -27.14 |

Data taken from ChEMBL document CHEMBL3988442, “University of Dundee, Small-Polar-MMV Screening Library” (2021).